Measurements: the supplement of paper PMC10338343
± gives the standard deviation. This is one part of the list. Many entries were measured with a wide error.

Tested on: EfPiwi piRISC loaded with L1MC piRNA (26 nt)
Assay: pre-steady-state target cleavage rate (min^-1); guide: L1MC piRNA 5'p-UAACUAAAUACUAUGCAAGCUGUAGG; MIWI and MILI are mouse PIWI proteins and EfPiwi is from a freshwater sponge; tags in brackets are library labels; higher = faster piRNA-guided slicing of the target
Conditions: auxiliary factor: 500 nM Ephydatia muelleri Gtsf1
Summary of the method: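 The pre-steady-state cleavage rate was obtained by Cleave-'n-Seq with a burst-and-steady-state fit. A transcribed, DNA-blocked target RNA library (0.1 nM) was mixed with 1 nM active affinity-purified piRISC carrying one synthetic guide, with or without 500 nM GTSF1 partner protein, in HEPES–potassium acetate buffer at 33 °C for 0–8 or 0–960 min. Uncleaved targets were sequenced and normalised to depth and to weakly complementary targets, with three trials pooled and k3 capped at 0.0001 min^-1.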

Sequence | pre-steady-state target cleavage rate
UCCUGGAUGAGCUUGCAUAGUAUUUACGUUA | 0.00466 ± 0.0026
UCCUCCUACAGCUUGCAUAGUAUUAUGUUA | 0.0049 ± 0.0026
UCCUGGAUCAGCUUGUAUAGUAUUUAGUUA | 0.104 ± 0.021
UCCUGGAUCAGCUUGCAUAGUAUUAAGUUA | 0.0323 ± 0.0094
UCCUGGAUGUCCUUGCAUAGUAUUUGGUUA | 0.00366 ± 0.0027
UCCUGGAUGAGCUCGCAUAGUAUUUAGUUA | 0.0143 ± 0.0042
UCCUCCUACAGCAUGCAAAGUAUUUAGUUA | 0.0492 ± 0.017
UCCUGGUACAGCUUGGAUAGUUUUUAGUUA | 0.00333 ± 0.0047
UCCUGGAUGUGGUUGCAUAGUAUUUAGUAA | 0.11 ± 0.056
UCCUGGAACAGGUUGGAUAGUAUUUAGUUA | 0.00375 ± 0.0014
UCCUCCUACAGCUUGCAUAGUAUUUAUUUA | 0.143 ± 0.053
UCCUGCUACAGCUUGCUAAGUAUUUAGUUA | 0.00353 ± 0.0029
UCCUGGAUGUCGAACGAUACUAUUUUGUUA | < 0.0001
UCCUGGAUCAGCUCUGCAUAGUAUUUAGUUA | 0.101 ± 0.023
UCCUGCUACAGCUUGCUUAGUAUUUAGUAA | 0.00437 ± 0.0017
UCCUCGUACAGCAUGCAUAGUAUUUAGUUA | 0.0515 ± 0.013
UCCUGGAUCUGCUUGCAUAGUUUUUAGUUA | 0.00787 ± 0.0041
UCCUGGUAGUGCUUGCAUAGUAUUUAGUAA | 0.00326 ± 0.0024

3 records drawn at random from the list so far:
Sequence | pre-steady-state target cleavage rate
UCCUGCUACAGCUUGCUAAGUAUUUAGUUA | 0.00353 ± 0.0029
UCCUGGAUCAGCUCUGCAUAGUAUUUAGUUA | 0.101 ± 0.023
UCCUGGUACAGCUUGGAUAGUUUUUAGUUA | 0.00333 ± 0.0047

Remaining list, next part.

Sequence | pre-steady-state target cleavage rate
UCCUGCUACAGCUUGGUUAGUAUUUAGUAA | 0.00273 ± 0.0024
UCCUGGUACAGCUAGCAUAGUAUAUAGUUA | 0.00193 ± 0.0026
UCCUGGAUCAGGCUUGCAUAGUAUUUAGUUA | 0.0132 ± 0.0034
UCCUGGAUCAGCUUCAUAGUAUUUAGUUA | 0.00789 ± 0.0033
UCCUGCUACAGCUUGCAAAGAAUUUAGUUA | 0.00161 ± 0.0024
UCCUGCUACAGCUAUGCAUAGUAUUUAGUUA | 0.012 ± 0.0044
UCCUGGAUGUGUCUUGCAUAGUAUUUAGUUA | 0.113 ± 0.038
UCCUCCUAGUGCUUGCAUAGUAUUUAGUUA | 0.00928 ± 0.0031
UCCUCCUACAGCAUGCAUAGUAUUUAGUAA | 0.00521 ± 0.0023
UCCUGCUACAGCUUGCUAUGUAUUUAGUUA | 0.00243 ± 0.0043
UCCUCCUACAGCUUGGAAAGUAUUUAGUUA | 0.0615 ± 0.013
UCCUGCUACAGCUUGAAUAGUAUUUAGUUA | 0.0179 ± 0.0045
UCCUGGAUGUCGAACGUAAGUAUUUAGUUUA | 0.000134 ± 0.02
UCCUGCUACUGCUUGCAUAGUAUUUUGUUA | 0.0061 ± 0.0024
UCCUGGAUGUCGAUGGUUAGUAUUUAGUUA | 0.000347 ± 0.009
UCCUGGAUGUCGAACGUAUCUAUUAUCUUA | < 0.0001
UCCUGGAUGAGCUUGCAUAGUAUUUAGUUUA | 0.0215 ± 0.0067
UCCUGCUACAACUUGCAUAGUAUUUAGUUA | 0.00776 ± 0.0029

Same assay, conditions: auxiliary factor: none (no Gtsf1)

Sequence | pre-steady-state target cleavage rate
UCCUGGAUGUGCUUGCAUAGUAAUUAGUUA | 0.00115 ± 0.012
UCCUGGAUGACCUUGGAUAGUAUUUAGUUA | 0.000236 ± 0.037
UCCUGGAUGUCGAACCAUACGUAUUUAGUUA | < 0.0001
UCCUGGAUGUCGAAGCAUAGAAUUUUGUUA | 0.000111 ± 0.032
